# Measured values: patent US12115180B2 (Board of Supervisors of Louisiana State University and …, priority 2020, dated 2024)
# System: neonatal rat cardiomyocytes (NRCs)
# Assay: Confocal microscopy of DOX distribution in cardiomyocytes (24 h)
# Type: cell-based, Sprague Dawley rat
smiles,measurement,setting,value
"COc1cccc2c1C(=O)c1c(O)c3c(c(O)c1C2=O)C[C@@](O)(C(=O)CO)C[C@@H]3O[C@H]1C[C@H](N)[C@H](O)[C@H](C)O1 [con-DOX, doxorubicin]",DOX localization in cardiomyocytes at high doses,25 μM,Cytosolic localization
same,DOX localization in cardiomyocytes,"5, 10, and 25 μM",completely localized into the nucleus
